Experimental data taken from PubChem BioAssay AID720591 (Broad Institute, 2013).
The whole screen tested about 1,200 compounds, of which about 60 (5%) were called active. About 1% were inconclusive and are not listed.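 The calls were made as follows: active = Decreasing signal and fitted IC50 at most twice the top valid tested dose; inconclusive = Bad fit or a level curve showing 30 to 70% inhibition; inactive = the rest.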 The list shows a part of the results. Results with a measured potency or affinity are listed apart.

The chains behind the UniProt entries cited, without tags or fusion partners. Where a name states a change or a piece, a line headed by the entry shows the natural chain unless it says otherwise.
UniProt Q9NXA8: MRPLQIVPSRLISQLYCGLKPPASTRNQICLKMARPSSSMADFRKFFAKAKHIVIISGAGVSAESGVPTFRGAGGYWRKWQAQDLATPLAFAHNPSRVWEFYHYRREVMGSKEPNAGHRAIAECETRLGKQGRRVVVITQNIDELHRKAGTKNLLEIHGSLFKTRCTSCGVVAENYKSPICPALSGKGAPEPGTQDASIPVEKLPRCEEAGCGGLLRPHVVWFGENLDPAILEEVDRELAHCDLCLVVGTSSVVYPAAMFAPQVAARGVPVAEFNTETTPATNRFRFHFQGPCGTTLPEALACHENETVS

What follows are compounds tested against NAD-dependent protein deacylase sirtuin-5, mitochondrial (Homo sapiens) (UniProt Q9NXA8) (assay: sirtuin-5 deacylation blockers, concentration series – biochemical, fluorescence imaging, cherry-pick, set 5, dose response (AID 720591;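 also: 0% = median of neutral control wells and -100% = median of positive control wells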)). Conditions: Purified SirT5, succinyl-peptide AMC, trypsin-coupled fluorescence; at 15 µM (top of the series) unless noted.

Activity change, negative = inhibition, inactive:
COCCCNC(=O)CC1C(=O)N(Cc2ccccc2)C(C)c2nc3ccccc3n21 (stereo unspecified) -24.6%
CN(C(=O)c1ccc2c(=O)n3c(nc2c1)CCCCC3)c1ccccc1F -21.9%
CCN(CC)C(=O)C1CCCN(Cc2ccc3ccccc3c2)C1 (stereo unspecified) -10.8%
CCNc1nc(C#N)nc2c1ncn2-c1cc(F)cc(F)c1 12.5%
CC(C)NC(=O)N(C)C[C@@H]1OCc2cnnn2CCCC(=O)N([C@@H](C)CO)C[C@H]1C 10.8%
COc1cccc(Nc2nc(CN3CCOCC3)nc3sc4c(c23)CCCC4)c1 2.63%
O=C(Nc1ccc(N2CCCC2)c(Cl)c1)c1cccs1 7.47%
CN(Cc1ccccc1F)C(=O)c1ccc(NS(=O)(=O)c2ccc3[nH]c(=O)[nH]c3c2)cc1 -20.6%
C[C@@H]1CN([C@@H](C)CO)C(=O)c2cc(/C=C/c3ccccc3)cnc2O[C@@H]1CN(C)S(=O)(=O)c1ccc(F)cc1 24.1%
CS(=O)(=O)N(CC(=O)N1CCCC1)c1ccc(F)cc1 6.53%
Cc1ccc(-n2cc(CN3CCN(Cc4nccn4C)CC3)c(-c3ccc(F)cc3)n2)cc1 14.7%
Cc1ccc(NC(=O)COc2ccc(Br)cc2CO)cc1S(=O)(=O)N1CCOCC1 3.1%
CC1CC(C)CN(S(=O)(=O)c2ccc3c(c2)oc(=O)n3CC(=O)NCc2cccnc2)C1 (stereo unspecified) -23.1%
CCCCCCc1ccc(OCC(=O)OC)cc1OCC(=O)OC 30.7%
CN(C)c1nc2c(c(=O)n(C)c(=O)n2C)n1Cc1ccccc1 1.34%
O=C(O)c1ccc2c(c1)ncn2C1CCCC1 -11.2%
CS(=O)(=O)N(CC(=O)N1CCCCCC1)c1cccc(F)c1 -22.2%
CCCCOc1ccc(C(=O)Nc2ccc(CN3CCOCC3)cc2)cc1 -16.6%
N#CCCN(C(=O)COC(=O)c1ccc2c(c1)NC(=O)CS2)c1ccc2c(c1)OCCO2 -30.3%
Cc1ccc(S(=O)(=O)NC(=O)Nc2cccc(C)n2)cc1 -0.691%
Cc1cc(S(=O)(=O)N2CCN=C2c2ccccc2)c(C)cc1Cl 9.09%
COc1cc(C(C)=O)ccc1OCc1cn(CC(=O)c2ccc(O)cc2)nn1 6.41%
CCOC(=O)C1=CN(Cc2cccc(Br)c2)S(=O)(=O)N(C)C1C (stereo unspecified) 34.1%
COc1ccc(-c2ocnc2C(=O)Nc2ccc3c(c2)CCC3)cc1 -32.4%
Cc1ccc(C(=O)OC(C)CN2CCN(C)CC2)cc1 (stereo unspecified) -19.7%
NC(=O)CSc1nc2ccccc2n1-c1ccccc1 2.91%
COc1ccc(CNC2CC(C)N(C)CC2C)cc1OC (stereo unspecified) 7.35%
O=C(CSc1nnc(COc2ccccc2)o1)N1CCOCC1 -0.134%
O=C(NNC(=O)c1cccs1)c1ccncc1 -19.9%
Cc1[nH]c2ccccc2c1C(=O)C(=O)N1CCN(c2ccccc2Cl)CC1 7.35%
CCc1c(C)nc2ccc(Br)cc2c1SCCC#N -8.37%
c1ccc(C[C@H]2CN=C(Nc3ccccc3)N2CC2CCCC2)cc1 22.7%
COC(=O)c1cccc(NC(=O)CSc2nnc(COc3ccc(C#N)cc3)n2-c2ccccc2)c1 -25.5%
C=CC[C@@H](CC(=O)OC(C)(C)C)C(=O)OC[C@@H]1CCCN1C(=O)[C@@H](CC=C)CC(=O)N[C@@H](CO)Cc1ccccc1 -18.7%
C[C@H](CO)N1C[C@H](C)[C@@H](CN(C)C(=O)Nc2ccccc2)Oc2c(NS(=O)(=O)c3cccs3)cccc2C1=O -31%
CC(C)NC(=O)CC1C(=O)N(Cc2ccccc2)C(C)c2nc3ccccc3n21 (stereo unspecified) -21.3%
CCN(CC)CCN1C(=O)C2C(C(=O)Nc3cccc(C)c3)C3C=CC2(O3)C1C(=O)NC1CCCC(C)C1C (stereo unspecified) 26.4%
O=C(c1cccc(S(=O)(=O)N2CCCC2)c1)N(Cc1ccco1)C1CCS(=O)(=O)C1 (stereo unspecified) -7.52%
CC1C(=O)N2CCCc3cc(S(=O)(=O)N4CCCCC4)cc1c32 (stereo unspecified) 10.4%
CCCNC(=O)C1(C)CCCN(Cc2cccc(Oc3ccccc3)c2)C1 (stereo unspecified) 20.7%
Cc1cc(C)n(C(=O)CNC(=O)c2cccs2)n1 0.332%
COc1cccc2c(=O)n(CC(=O)N3CCCc4ccccc43)ccc12 -27.1%
O=C(NC1CCCCC1)c1ccc(S(=O)(=O)c2ccccc2)cc1 -29.3%
Cc1csc(N2CCCC2=O)n1 38.1%
CCOC(=O)c1cnc2nc(C)nn2c1N -12.8%
CC(=O)c1cn(CC(=O)Nc2cccc(C)c2C)c2ccccc12 -1.97%
CCOC(=O)C1=CCN(S(=O)(=O)c2ccccc2Br)C1c1ccc(Cl)c(Cl)c1 (stereo unspecified) -30.7%
CN1C(=O)[C@H]2[C@@H](C3CC3)N3C(=O)CN(CCO)C(=O)[C@@]3(Cc3ccccc3)[C@H]2C1=O -16.4%
Cc1ccc(S(=O)(=O)N2CCC(=O)N([C@H](COCc3cccc(Cl)c3)Cc3ccccc3)CC2)cc1 -25%
CC(=O)Nc1ccc(S(=O)(=O)Nc2ccc(-n3cnnn3)cc2)cc1 -11.7%
O=C(O)CSCC(=O)Nc1cccc(C(F)(F)F)c1 -1.48%
CCSc1nnc(NC(=O)Cc2ccc(OC)cc2)s1 -29.4%
Cn1cc(CCC(=O)N2CCCC(Nc3ccc(F)cc3)C2)cn1 (stereo unspecified) -28.1%
COc1ccc(-c2csc3nc(C(C)C)oc(=O)c23)cc1OC -30.7%
O=C(CSc1ccc(-c2ccccc2)nn1)N1CCN(c2ccccc2)CC1 8.7%
O=C(NCc1ccccc1)C(c1ccco1)N(C(=O)c1csnn1)c1ccccc1 (stereo unspecified) 11.3%
O=C(Nc1nnc(C2CC2)s1)c1ccccn1 -17.5%
COc1ccccc1C1NC(=O)NC(C)=C1C(=O)OCc1ccccc1 (stereo unspecified) -16.6%
CCN1CCc2c(sc(NC(=O)c3ccc(S(=O)(=O)N(C)CC4CCCO4)cc3)c2C(N)=O)C1 (stereo unspecified) 7.35%
Cc1cnc(NC(=O)c2ccco2)s1 10.2%
O=C(COc1ccc(-n2ccnc2)cc1)Nc1cccc(Cl)c1 1.48%
Cc1ccc(S(=O)(=O)Nc2ccc(N(C)C)cc2)cc1 -8.19%
C[C@@H]1CN([C@@H](C)CO)C(=O)CCCn2nncc2CO[C@H]1CN(C)S(=O)(=O)c1ccc2c(c1)OCCCO2 20.3%
COC(=O)c1c(NC(=O)C2(C)Cc3ccccc3C(=O)O2)sc2c1CCCC2 (stereo unspecified) -28%
CCCc1cc(=O)oc2c(C)c(OCC(=O)NCCN3CCOCC3)ccc12 -21%
COc1ccc(C(=O)N2CCN(S(=O)(=O)c3ccc(C)cc3)CC2)cc1S(=O)(=O)N1CCOCC1 26%
COc1ccc(C(C)=O)cc1CSc1ccc(S(=O)(=O)N2CCOCC2)cn1 -29.1%
CC1(C)CC(=O)c2cc(C(=O)NNc3ccccc3)c(=O)n(-c3ccccc3)c2C1 6.99%
Cc1ccc(S(=O)(=O)N2CC3CCCC2C3)cc1 (stereo unspecified) 20.3%
CCn1c(C)c(C)c2cc(C(=O)NC3CCCCCC3)ccc21 -12.5%
C=CC[C@H](CC(=O)N(CCO)Cc1ccccc1)C(=O)N[C@@H](COC(=O)[C@H](CC=C)CC(=O)OC(C)(C)C)Cc1c[nH]c2ccccc12 17%
Cc1ccccc1NC(=O)C1CC(=O)n2ncnc2N1 (stereo unspecified) 14.6%
CC1(C(=O)NCc2cc(F)cc(C(F)(F)F)c2)C=CC2(CCCCC2)N1C(=O)c1ccccc1 (stereo unspecified) -7.85%
O=C(Nc1cccc(Br)c1)c1ccc(CSc2ccccc2)cc1 -25.6%
c1ccc(COc2cccc(-c3cc4nc(NCCc5ccncc5)ccn4n3)c2)cc1 -25.8%
O=C(COc1ccccc1)NCC(c1ccco1)N1CCN(c2ccc(F)cc2)CC1 (stereo unspecified) 13.8%
CCC(=O)Nc1ccc2c(c1)OC[C@@H](C)N(Cc1ccccc1F)C[C@@H](C)[C@@H](OC)CN(C)C2=O -34.7%
C[C@H](CO)N1C[C@H](C)[C@@H](CN(C)S(=O)(=O)c2ccc3ccccc3c2)OCc2cnnn2CCCC1=O 21.8%
CN(CCCn1ccc(NC(=O)OCc2ccccc2)nc1=O)Cc1ccco1 12.5%
O=C(C[C@H]1CC[C@@H]2[C@H](COC[C@H](O)CN2Cc2cccc(F)c2)O1)NCc1cccc(F)c1 -14.3%
CC(C)C[C@H](NC(=O)c1nc[nH]c1C(=O)NCC(=O)OCc1ccccc1)C(=O)OC(C)(C)C -34.4%
NC(=O)c1ccc(-c2c(-c3ccccc3)sc3ccccc23)cc1 -20.9%
Fc1ccc(-c2nc3ccc(Cl)cn3c2Cc2cccc(F)c2)cc1 12.6%
C[C@@H]1CN([C@@H](C)CO)C(=O)c2cc(Br)cnc2O[C@H]1CN(C)C(=O)C1CCCCC1 1.2%
Cc1ccc(C)c(S(=O)(=O)Nc2ccccc2C(=O)Nc2ccc(S(=O)(=O)Nc3ncccn3)cc2)c1 -4.98%
C[C@@H]1CCCCO[C@H](CN(C)C(=O)Nc2cccc3ccccc23)[C@@H](C)CN([C@H](C)CO)C(=O)c2cc(N(C)C)ccc2O1 -30.4%

Of the compounds above, 3 have a tert-butyl group:
Activity change, negative = inhibition, inactive:
C=CC[C@@H](CC(=O)OC(C)(C)C)C(=O)OC[C@@H]1CCCN1C(=O)[C@@H](CC=C)CC(=O)N[C@@H](CO)Cc1ccccc1 -18.7%
C=CC[C@H](CC(=O)N(CCO)Cc1ccccc1)C(=O)N[C@@H](COC(=O)[C@H](CC=C)CC(=O)OC(C)(C)C)Cc1c[nH]c2ccccc12 17%
CC(C)C[C@H](NC(=O)c1nc[nH]c1C(=O)NCC(=O)OCc1ccccc1)C(=O)OC(C)(C)C -34.4%
